Results are given in words; binding and its absence hold for the method and conditions named. For some assays here: In cells and extracts the contact can be indirect. Some entries that bind do so weakly or less than the wild type.
What was measured:
[1] = biological target: GFP-tagged K19 (UniProt P08727); experiment: co-IP; HEK293 cells transiently expressing GFP or GFP-K19; immunoblot for HNRNPK
[2] = biological target: Keratin 19 (K19), endogenous in MDA-MB-231 cells (human (endogenous in MDA-MB-231)) (UniProt P08727); experiment: proximity ligation; Duolink in situ PLA with K19 and HNRNPK antibodies on fixed MDA-MB-231 parental cells, permeabilized with 0.01% digitonin (Fig. 1A) or with triton (Fig. S1B); KRT19 KO cells as control
[3] = biological target: Keratin 19 (K19), endogenous in MDA-MB-231 cells (human (endogenous in MDA-MB-231)) (UniProt P08727); experiment: co-IP; endogenous proteins; anti-K19 IP in Triton lysis buffer (1% Triton X-100, 40 mM HEPES pH 7.5, 120 mM sodium chloride, 1 mM EDTA) with 2% empigen, Protein G Sepharose, IgG control, immunoblot
[4] = biological target: Heterogeneous nuclear ribonucleoprotein K (HNRNPK), endogenous in MDA-MB-231 cells (human (endogenous in MDA-MB-231)) (UniProt P61978); experiment: co-IP; endogenous proteins; anti-HNRNPK IP in NP-40 lysis buffer (0.25% NP-40, 50 mM Tris pH 8.0, 100 mM sodium chloride), Protein G Sepharose, IgG control, immunoblot
[5] = biological target: preassembled K8/K19 filaments (UniProt P08727); experiment: co-sedimentation; high-speed in vitro co-sedimentation; recombinant HNRNPK incubated with or without preassembled K8/K19 filaments; supernatant and pellet immunoblotted; both purified

Sequences of proteins named here, by UniProt entry; tags and fusion partners are left off.
UniProt P08727: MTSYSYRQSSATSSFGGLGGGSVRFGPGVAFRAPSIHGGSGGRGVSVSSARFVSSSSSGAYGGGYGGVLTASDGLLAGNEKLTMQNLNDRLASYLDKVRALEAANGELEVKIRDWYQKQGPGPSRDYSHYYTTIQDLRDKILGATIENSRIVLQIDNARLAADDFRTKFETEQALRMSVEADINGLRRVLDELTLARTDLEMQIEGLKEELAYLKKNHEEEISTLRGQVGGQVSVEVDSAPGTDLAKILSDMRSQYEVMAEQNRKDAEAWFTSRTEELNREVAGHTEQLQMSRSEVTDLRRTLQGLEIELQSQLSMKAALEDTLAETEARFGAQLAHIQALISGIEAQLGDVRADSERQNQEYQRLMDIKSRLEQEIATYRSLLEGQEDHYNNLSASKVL

Q: With “HNRNPK in HEK293 cells (from UniProt P61978 1-463)” as the substance, how does the binding [1] read?
A: binds

Q: How did the binding [2] turn out when “Heterogeneous nuclear ribonucleoprotein K (HNRNPK), endogenous in MDA-MB-231 cells (from UniProt P61978 1-463)” was run?
A: binds

Q: What about the binding [3] of the same substance?
A: binds

Q: How did the binding [4] turn out when “Keratin 19 (K19), endogenous in MDA-MB-231 cells (from UniProt P08727 1-400)” was run?
A: binds

Q: Which binding [5] does the source give for “recombinant HNRNPK (from UniProt P61978 1-463)” here?
A: binds

Reference: paper PMC10433649
